Laboratory results taken from PubChem BioAssay AID190 (DTP/NCI, 2004).
The list does not hold the whole screen: it gathers tests that were run many times, whatever their T/C, doses with no T/C, and many T/C values between a quarter and a half above the control. Other doses and runs of a compound stand elsewhere. T/C is the treated group as % of the vehicle group. Some doses have a count of surviving animals in place of a T/C: the source holds a T/C of zero for them, seemingly a mark for toxic or unscored doses. Some survivor counts are full or nearly so, which does not show that the dose was tolerated: survival well below the control is almost never listed, so the zero probably covers shortened survival too. Survivors were counted at the toxicity check, usually on the fifth day, unless a day is given; later deaths do not show. Schedule codes are those of the source, taken here to give the interval after Q, in days (D) or hours (H), and the number of doses after X. Some doses were run more than once; the values are given in rising order. For survival time, the PubChem record calls one and a half times the control and up active, and a quarter to a half above the control has no call in these data; cut-offs in other NCI protocols can differ. Some T/C values carry the count of animals alive at the toxicity check (mostly the fifth day); without a count, all were alive then.

Tested on: AKR/Lw mice, AKR lymphoma ip, median survival T/C
Experiment: NCI In Vivo Anticancer Drug Screen. Data for tumor model Lymphoma AKR (Transplanted) (intraperitoneal) in AKR/Lw mice
Settings: T/C endpoint: median survival time, higher T/C = longer survival
Procedure: The antitumor activity of compounds was measured in mice bearing transplantable tumors. Survival or tumor size were measured and the results are expressed as the measurement made in the treated group (T) divided by the measurement made in the vehicle treated control group (C). The tumor model used in this assay is Lymphoma AKR (Transplanted) (intraperitoneal) in AKR/Lw mice

[1] = dose: 20.0 mg/kg/injection, schedule: Q04DX003 (ip), vehicle: Klucel (hydroxypropylcellulose) (HPC)
[2] = dose: 50.0 mg/kg/injection, schedule: Q01DX001 (ip), vehicle: Klucel (hydroxypropylcellulose) (HPC)
[3] = dose: 50.0 mg/kg/injection, schedule: Q01DX001 (ip), vehicle: saline
[4] = dose: 100.0 mg/kg/injection, schedule: Q01DX001 (ip), vehicle: Klucel (hydroxypropylcellulose) (HPC)
[5] = dose: 100.0 mg/kg/injection, schedule: Q01DX001 (ip), vehicle: saline with Tween-80
[6] = dose: 100.0 mg/kg/injection, schedule: Q01DX001 (ip), vehicle: saline
[7] = dose: 200.0 mg/kg/injection, schedule: Q01DX001 (ip), vehicle: Klucel (hydroxypropylcellulose) (HPC)
[8] = dose: 200.0 mg/kg/injection, schedule: Q01DX001 (ip), vehicle: saline
[9] = dose: 400.0 mg/kg/injection, schedule: Q01DX001 (ip), vehicle: Klucel (hydroxypropylcellulose) (HPC)

In the case of O=C(O)CCCc1ccc(N(CCCl)CCCl)cc1, the T/C (dose: 0.5 mg/kg/injection, schedule: Q01DX009 (ip), vehicle: Klucel (hydroxypropylcellulose) (HPC)) is reported as 128 % of control, the survivor count (dose: 1.2 mg/kg/injection, schedule: Q04DX003 (ip), vehicle: saline) is reported as 5 of 10 and the survivor count (dose: 1.5 mg/kg/injection, schedule: Q01DX009 (ip), vehicle: saline) is reported as 9 of 10. For the same molecule, the T/C (dose: 2.5 mg/kg/injection, schedule: Q04DX003 (ip), vehicle: Klucel (hydroxypropylcellulose) (HPC)) was 145 % of control, the survivor count (dose: 3.0 mg/kg/injection, schedule: Q01DX009 (ip), vehicle: saline) was 9 of 10 and the T/C (dose: 5.0 mg/kg/injection, schedule: Q01DX009 (ip), vehicle: saline) was 133 % of control [9 of 10 alive]. The survivor count (dose: 5.0 mg/kg/injection, schedule: Q04DX003 (ip), vehicle: saline) was 10 of 10, the survivor count (dose: 6.0 mg/kg/injection, schedule: Q01DX009 (ip), vehicle: saline) was 10 of 10 and the T/C (dose: 8.0 mg/kg/injection, schedule: Q01DX009 (ip), vehicle: saline) was 146 % of control. The survivor count (dose: 10.0 mg/kg/injection, schedule: Q01DX009 (ip), vehicle: Klucel (hydroxypropylcellulose) (HPC)) was 9 of 10, the survivor count (dose: 10.0 mg/kg/injection, schedule: Q01DX009 (ip), vehicle: saline) was 7 of 10 and the T/C (dose: 10.0 mg/kg/injection, schedule: Q04DX003 (ip), vehicle: Klucel (hydroxypropylcellulose) (HPC)) was 105, 111, 116, 140 % of control. The survivor count (dose: 10.0 mg/kg/injection, schedule: Q04DX003 (ip), vehicle: saline) was 5 of 10 and 10 of 10, the survivor count (dose: 12.5 mg/kg/injection, schedule: Q01DX009 (ip), vehicle: saline) was 10 of 10 and the survivor count (dose: 16.0 mg/kg/injection, schedule: Q01DX009 (ip), vehicle: saline) was 10 of 10. For the same molecule, the survivor count (dose: 20.0 mg/kg/injection, schedule: Q01DX009 (ip), vehicle: saline) was 7 of 10, the T/C [1] was 94, 127, 142 % of control and the survivor count [1] was 10 of 10. For the same molecule, the T/C (dose: 25.0 mg/kg/injection, schedule: Q01DX001 (ip), vehicle: Klucel (hydroxypropylcellulose) (HPC)) was 100, 110 [7 of 10 alive], 118 [7 of 10 alive], 122 % of control, the T/C (dose: 25.0 mg/kg/injection, schedule: Q01DX001 (ip), vehicle: saline) was 102 [9 of 10 alive], 111, 116, 133 % of control and the survivor count (dose: 25.0 mg/kg/injection, schedule: Q01DX009 (ip), vehicle: saline) was 0 of 10 and 9 of 10. The survivor count (dose: 25.0 mg/kg/injection, schedule: Q04DX003 (ip), vehicle: saline) was 9 of 10, the survivor count (dose: 32.0 mg/kg/injection, schedule: Q01DX009 (ip), vehicle: saline) was 9 of 10 and the survivor count (dose: 40.0 mg/kg/injection, schedule: Q04DX003 (ip), vehicle: Klucel (hydroxypropylcellulose) (HPC)) was 9 of 10. For the same molecule, the T/C [2] was 88 [9 of 10 alive] and 129 % of control [9 of 10 alive], the survivor count [2] was 4 of 10 and 8 of 10 and the T/C [3] was 106 [7 of 10 alive], 111, 116 % of control. For the same molecule, the survivor count [3] was 6 of 10, the survivor count (dose: 50.0 mg/kg/injection, schedule: Q01DX009 (ip), vehicle: saline) was 0 of 10 and the survivor count (dose: 50.0 mg/kg/injection, schedule: Q04DX003 (ip), vehicle: saline) was 1 of 10. The survivor count (dose: 64.0 mg/kg/injection, schedule: Q01DX009 (ip), vehicle: saline) was 0 of 10, the survivor count [4] was 0 of 10 and 5 of 10 and the survivor count [5] was 10 of 10. The T/C [6] was 126 [8 of 10 alive] and 131 % of control [9 of 10 alive], the survivor count [6] was 0 of 10, 1 of 10, 3 of 10 and the survivor count (dose: 100.0 mg/kg/injection, schedule: Q01DX009 (ip), vehicle: saline) was 0 of 10. The survivor count (dose: 100.0 mg/kg/injection, schedule: Q04DX003 (ip), vehicle: saline) was 0 of 10, the survivor count [7] was 0 of 10 and 5 of 10 and the survivor count (dose: 200.0 mg/kg/injection, schedule: Q01DX001 (ip), vehicle: saline with Tween-80) was 10 of 10. For the same molecule, the T/C [8] was 104 % of control [8 of 10 alive], the survivor count [8] was 0 of 10 and 1 of 10 and the survivor count (dose: 400.0 mg/kg/injection, schedule: Q01DX001 (ip), vehicle: saline with Tween-80) was 10 of 10. For the same molecule, the survivor count (dose: 400.0 mg/kg/injection, schedule: Q01DX001 (ip), vehicle: saline) was 0 of 10 and 6 of 10.
O=C1N[C@@H]([C@H]2CC[C@H](Cl)CN2)C(=O)N[C@H]1[C@H]1CC[C@H](Cl)CN1 was tested, and the T/C (dose: 4.0 mg/kg/injection, schedule: Q01DX001 (ip), vehicle: saline) was 133 % of control, the T/C (dose: 4.0 mg/kg/injection, schedule: Q01DX001 (ip), vehicle: water) was 146 % of control and the survivor count (dose: 4.0 mg/kg/injection, schedule: Q01DX009 (ip), vehicle: water) was 10 of 10. For the same molecule, the survivor count (dose: 8.0 mg/kg/injection, schedule: Q01DX001 (ip), vehicle: saline) was 10 of 10, the survivor count (dose: 8.0 mg/kg/injection, schedule: Q01DX009 (ip), vehicle: water) was 9 of 10 and the survivor count (dose: 16.0 mg/kg/injection, schedule: Q01DX001 (ip), vehicle: saline) was 7 of 10. The survivor count (dose: 16.0 mg/kg/injection, schedule: Q01DX001 (ip), vehicle: water) was 10 of 10, the survivor count (dose: 16.0 mg/kg/injection, schedule: Q01DX009 (ip), vehicle: water) was 10 of 10 and the survivor count (dose: 32.0 mg/kg/injection, schedule: Q01DX001 (ip), vehicle: water) was 10 of 10. For the same molecule, the survivor count (dose: 32.0 mg/kg/injection, schedule: Q01DX009 (ip), vehicle: water) was 10 of 10.
In the case of CCOC(=O)/C(C(C)=O)=C(/O)c1ccc(OC(F)(F)C(F)Cl)cc1OC(F)(F)C(F)Cl.CCOC(=O)/C(C(C)=O)=C(/O)c1ccc(OC(F)(F)C(F)Cl)cc1OC(F)(F)C(F)Cl.[Cu] (stereo not drawn), the survivor count [9] is reported as 9 of 10.
For COc1cccc2c1C(=O)c1c(O)c3c(c(O)c1C2=O)C[C@@](O)(C(=O)CO)C[C@@H]3OC1CC(N)C(O)C(C)O1 (stereo partly drawn), the T/C (dose: 0.25 mg/kg/injection, schedule: Q01DX006 (sc), vehicle: saline) was 135 % of control, the T/C (dose: 0.7 mg/kg/injection, schedule: Q04DX003 (sc), vehicle: saline, evaluated on day 5) was 127 % of control and the T/C (dose: 0.7 mg/kg/injection, schedule: Q04DX003 (sc), vehicle: saline, evaluated on day 60) was 127 % of control. The T/C (dose: 1.0 mg/kg/injection, schedule: Q01DX006 (sc), vehicle: saline) was 135 % of control, the T/C (dose: 1.3 mg/kg/injection, schedule: Q04DX003 (sc), vehicle: saline, evaluated on day 5) was 112 and 128 % of control and the T/C (dose: 1.3 mg/kg/injection, schedule: Q04DX003 (sc), vehicle: saline, evaluated on day 60) was 112 and 128 % of control. For the same molecule, the survivor count (dose: 2.0 mg/kg/injection, schedule: Q01DX006 (ip), vehicle: saline) was 10 of 10, the T/C (dose: 2.0 mg/kg/injection, schedule: Q04DX003 (sc), vehicle: saline, evaluated on day 5) was 105 and 120 % of control and the T/C (dose: 2.0 mg/kg/injection, schedule: Q04DX003 (sc), vehicle: saline, evaluated on day 60) was 105 and 120 % of control.
In the case of COc1cccc(CNc2cccc(Cl)c2Cl)c1OC, the T/C [5] is reported as 126 % of control and the survivor count [5] is reported as 10 of 10.
In the case of CC(=O)CC(=O)c1ccccc1.CC(=O)CC(=O)c1ccccc1.CC(=O)CC(=O)c1ccccc1.[Co], the survivor count [4] is reported as 4 of 10, the survivor count [7] is reported as 2 of 10 and the survivor count [9] is reported as 0 of 10.
With COc1ccc(CCNC(=S)NCCc2ccc(OC)c(OC)c2)cc1OC the survivor count [7] was 10 of 10.
For Cc1ccc(N=C(c2ccc([N+](=O)[O-])cc2)c2ccc([N+](=O)[O-])cc2)cc1, the survivor count [4] was 10 of 10 and the survivor count [9] was 10 of 10.
In the case of C[N+](C)(C)Cc1ccccc1, the survivor count [3] is reported as 1 of 10 and the survivor count [6] is reported as 0 of 10.
